This is an account of results in doi:10.1101/2021.04.25.441346 (bioRxiv, 2021).

These are yes or no findings as the source states them, for the method shown. Binding seen in cells or lysates may run through a third protein. A result given as binding can be weak or reduced; the word gives no strength. Sequences can lack the tags named with a protein.

Experiment [1] concerns the target T1, ARF19 BiFC fusion (nEYFP-ARF19 and cEYFP-ARF19) (Arabidopsis thaliana) (UniProt Q8RYC8).
T1 sequence: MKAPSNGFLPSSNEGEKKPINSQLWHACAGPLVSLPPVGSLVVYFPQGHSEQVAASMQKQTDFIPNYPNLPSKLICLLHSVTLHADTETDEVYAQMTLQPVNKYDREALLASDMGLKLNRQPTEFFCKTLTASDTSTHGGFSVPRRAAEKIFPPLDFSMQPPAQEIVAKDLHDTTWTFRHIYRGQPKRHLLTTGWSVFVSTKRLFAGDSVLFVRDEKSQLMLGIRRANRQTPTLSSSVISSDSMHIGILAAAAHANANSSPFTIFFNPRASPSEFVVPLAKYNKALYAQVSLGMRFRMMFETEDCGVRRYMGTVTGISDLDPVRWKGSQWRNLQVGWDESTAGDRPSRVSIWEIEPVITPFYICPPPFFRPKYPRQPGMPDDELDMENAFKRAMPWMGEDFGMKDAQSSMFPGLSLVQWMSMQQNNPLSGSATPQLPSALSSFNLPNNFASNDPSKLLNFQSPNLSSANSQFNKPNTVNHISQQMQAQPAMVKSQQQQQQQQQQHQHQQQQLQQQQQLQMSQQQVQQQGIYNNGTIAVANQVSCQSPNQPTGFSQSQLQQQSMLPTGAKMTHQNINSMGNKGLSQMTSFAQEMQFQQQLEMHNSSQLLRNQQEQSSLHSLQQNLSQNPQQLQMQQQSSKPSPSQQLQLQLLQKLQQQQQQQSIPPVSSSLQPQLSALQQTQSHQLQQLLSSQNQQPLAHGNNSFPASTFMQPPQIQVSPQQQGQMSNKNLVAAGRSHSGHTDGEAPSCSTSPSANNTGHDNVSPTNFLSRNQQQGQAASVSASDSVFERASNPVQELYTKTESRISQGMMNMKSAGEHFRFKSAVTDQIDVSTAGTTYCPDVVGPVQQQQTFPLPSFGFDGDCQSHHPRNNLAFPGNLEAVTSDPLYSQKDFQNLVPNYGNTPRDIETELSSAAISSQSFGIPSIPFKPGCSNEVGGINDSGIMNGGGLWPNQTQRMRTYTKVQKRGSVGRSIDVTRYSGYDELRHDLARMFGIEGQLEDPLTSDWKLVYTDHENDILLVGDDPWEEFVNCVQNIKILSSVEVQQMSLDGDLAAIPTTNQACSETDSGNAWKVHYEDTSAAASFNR
As to the kind of experiment: split reporter.

Experiment [2] deals with T2, ARF7-HA (AUXIN RESPONSE FACTOR 7) (Arabidopsis thaliana) (UniProt P93022).
T2 sequence: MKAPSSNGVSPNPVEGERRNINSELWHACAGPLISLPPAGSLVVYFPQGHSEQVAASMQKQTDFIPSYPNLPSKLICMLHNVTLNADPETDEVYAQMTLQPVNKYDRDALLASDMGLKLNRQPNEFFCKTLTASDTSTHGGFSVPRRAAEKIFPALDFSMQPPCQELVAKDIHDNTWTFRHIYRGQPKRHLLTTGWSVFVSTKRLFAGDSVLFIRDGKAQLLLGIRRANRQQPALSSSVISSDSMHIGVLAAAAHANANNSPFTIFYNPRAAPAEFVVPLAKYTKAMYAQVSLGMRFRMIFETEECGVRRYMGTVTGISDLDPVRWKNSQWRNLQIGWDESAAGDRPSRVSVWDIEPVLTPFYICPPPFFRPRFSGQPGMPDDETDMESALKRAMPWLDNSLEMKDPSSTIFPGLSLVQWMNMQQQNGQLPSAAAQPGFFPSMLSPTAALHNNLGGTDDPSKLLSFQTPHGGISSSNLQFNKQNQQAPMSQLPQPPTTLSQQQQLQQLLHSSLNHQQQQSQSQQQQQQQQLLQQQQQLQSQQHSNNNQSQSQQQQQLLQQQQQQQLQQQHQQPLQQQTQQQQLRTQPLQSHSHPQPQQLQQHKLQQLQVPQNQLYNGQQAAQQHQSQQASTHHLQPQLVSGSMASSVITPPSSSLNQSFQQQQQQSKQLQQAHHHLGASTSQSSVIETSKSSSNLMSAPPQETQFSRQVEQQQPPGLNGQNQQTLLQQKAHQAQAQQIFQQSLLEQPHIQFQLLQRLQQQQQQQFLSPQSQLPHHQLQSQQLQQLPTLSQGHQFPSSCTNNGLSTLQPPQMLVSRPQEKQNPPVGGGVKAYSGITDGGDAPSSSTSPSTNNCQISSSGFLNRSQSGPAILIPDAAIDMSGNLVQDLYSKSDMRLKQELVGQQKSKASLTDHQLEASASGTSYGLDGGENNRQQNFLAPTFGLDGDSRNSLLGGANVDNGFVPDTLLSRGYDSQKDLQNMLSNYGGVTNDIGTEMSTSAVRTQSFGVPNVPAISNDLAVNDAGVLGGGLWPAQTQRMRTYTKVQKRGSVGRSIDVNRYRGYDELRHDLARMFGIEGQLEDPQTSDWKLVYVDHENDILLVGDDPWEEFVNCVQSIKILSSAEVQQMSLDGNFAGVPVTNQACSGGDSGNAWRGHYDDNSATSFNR
As to the kind of experiment: co-IP.

Experiment [3] addresses T3, YFP-ARF19 (AUXIN RESPONSE FACTOR 19) (Arabidopsis thaliana) (UniProt Q8RYC8).
T3 sequence: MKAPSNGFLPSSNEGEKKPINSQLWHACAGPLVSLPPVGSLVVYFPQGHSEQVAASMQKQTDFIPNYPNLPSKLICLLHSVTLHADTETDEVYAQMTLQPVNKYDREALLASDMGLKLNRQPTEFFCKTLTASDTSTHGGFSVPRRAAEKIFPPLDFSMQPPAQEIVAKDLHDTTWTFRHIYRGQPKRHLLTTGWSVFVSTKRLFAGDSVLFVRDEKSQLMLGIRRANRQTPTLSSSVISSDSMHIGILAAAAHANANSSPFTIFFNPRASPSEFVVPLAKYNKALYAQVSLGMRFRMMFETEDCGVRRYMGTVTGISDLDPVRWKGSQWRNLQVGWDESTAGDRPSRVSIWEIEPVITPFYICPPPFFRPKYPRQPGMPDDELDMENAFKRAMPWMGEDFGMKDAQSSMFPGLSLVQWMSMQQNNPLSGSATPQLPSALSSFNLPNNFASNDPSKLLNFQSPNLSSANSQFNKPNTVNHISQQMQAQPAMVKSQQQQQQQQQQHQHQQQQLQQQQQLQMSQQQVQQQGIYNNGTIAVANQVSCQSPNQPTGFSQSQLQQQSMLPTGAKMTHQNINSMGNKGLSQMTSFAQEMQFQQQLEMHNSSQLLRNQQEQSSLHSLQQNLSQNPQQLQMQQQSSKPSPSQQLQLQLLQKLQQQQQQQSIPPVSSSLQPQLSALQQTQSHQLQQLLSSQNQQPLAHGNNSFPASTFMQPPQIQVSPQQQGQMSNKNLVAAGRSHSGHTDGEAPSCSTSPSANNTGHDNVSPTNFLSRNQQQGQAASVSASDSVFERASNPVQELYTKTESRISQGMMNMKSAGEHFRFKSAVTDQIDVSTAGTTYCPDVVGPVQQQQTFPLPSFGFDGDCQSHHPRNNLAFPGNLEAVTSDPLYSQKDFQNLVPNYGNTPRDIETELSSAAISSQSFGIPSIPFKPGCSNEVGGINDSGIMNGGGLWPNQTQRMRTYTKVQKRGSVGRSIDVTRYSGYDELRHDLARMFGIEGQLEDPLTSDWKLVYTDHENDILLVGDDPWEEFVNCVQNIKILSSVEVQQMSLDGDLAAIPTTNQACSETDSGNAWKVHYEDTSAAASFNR
The experiment can be described thus: co-IP.

For experiment [4], the target named is GST-ΔF-box-AFF1 (Arabidopsis thaliana). As to the kind of experiment: pull-down.

“nEYFP-ΔF-box-AFF1 (Arabidopsis thaliana) (domain or fragment)”: the binding result in experiment [1] was “binds”.

Consider “GST-ΔF-box-AFF1 (Arabidopsis thaliana) (domain or fragment)”, for which the binding entry in experiment [2] and in experiment [3] was “binds” each time.

B1: YFP-ARF19 (AUXIN RESPONSE FACTOR 19) (protein, UniProt Q8RYC8 1-1086)
chain: MKAPSNGFLPSSNEGEKKPINSQLWHACAGPLVSLPPVGSLVVYFPQGHSEQVAASMQKQTDFIPNYPNLPSKLICLLHSVTLHADTETDEVYAQMTLQPVNKYDREALLASDMGLKLNRQPTEFFCKTLTASDTSTHGGFSVPRRAAEKIFPPLDFSMQPPAQEIVAKDLHDTTWTFRHIYRGQPKRHLLTTGWSVFVSTKRLFAGDSVLFVRDEKSQLMLGIRRANRQTPTLSSSVISSDSMHIGILAAAAHANANSSPFTIFFNPRASPSEFVVPLAKYNKALYAQVSLGMRFRMMFETEDCGVRRYMGTVTGISDLDPVRWKGSQWRNLQVGWDESTAGDRPSRVSIWEIEPVITPFYICPPPFFRPKYPRQPGMPDDELDMENAFKRAMPWMGEDFGMKDAQSSMFPGLSLVQWMSMQQNNPLSGSATPQLPSALSSFNLPNNFASNDPSKLLNFQSPNLSSANSQFNKPNTVNHISQQMQAQPAMVKSQQQQQQQQQQHQHQQQQLQQQQQLQMSQQQVQQQGIYNNGTIAVANQVSCQSPNQPTGFSQSQLQQQSMLPTGAKMTHQNINSMGNKGLSQMTSFAQEMQFQQQLEMHNSSQLLRNQQEQSSLHSLQQNLSQNPQQLQMQQQSSKPSPSQQLQLQLLQKLQQQQQQQSIPPVSSSLQPQLSALQQTQSHQLQQLLSSQNQQPLAHGNNSFPASTFMQPPQIQVSPQQQGQMSNKNLVAAGRSHSGHTDGEAPSCSTSPSANNTGHDNVSPTNFLSRNQQQGQAASVSASDSVFERASNPVQELYTKTESRISQGMMNMKSAGEHFRFKSAVTDQIDVSTAGTTYCPDVVGPVQQQQTFPLPSFGFDGDCQSHHPRNNLAFPGNLEAVTSDPLYSQKDFQNLVPNYGNTPRDIETELSSAAISSQSFGIPSIPFKPGCSNEVGGINDSGIMNGGGLWPNQTQRMRTYTKVQKRGSVGRSIDVTRYSGYDELRHDLARMFGIEGQLEDPLTSDWKLVYTDHENDILLVGDDPWEEFVNCVQNIKILSSVEVQQMSLDGDLAAIPTTNQACSETDSGNAWKVHYEDTSAAASFNR
As for B1, in experiment [4], the binding entry is given as “binds”.
